Test results published in PubChem BioAssay AID493014 (National Center for Advancing Translational Sciences (NCATS), 2011).
The other results are listed elsewhere or left out. Shown are side measurements of this screen, not its main read-out; they come without a call. The list favours compounds with an active or inconclusive main result. Potencies come from curve fits of mixed quality, noted in brackets.

Assay: qHTS Assay to Find Inhibitors of Chronic Active B-Cell Receptor Signaling
Settings: ABC-DLBCL IkBa-CBG/CBR reporter, luminescence ratio (green luciferase fused to IkBa over red control in TMD8 lymphoma cells), 4 h
Outline: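 Compounds up to 46 uM were incubated four hours with TMD8 cells whose green CBG68 luciferase is fused to IkappaBalpha; red CBR luminescence normalised the signal, and concentration-effect curves were fitted to fusion, red and ratio data.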

[1] = measured here: CBR red luminescence, cell number
[2] = measured here: IkBa-CBG green luminescence

Structure (SMILES)	AC50 [1]	AC50 [2]
CN(C(=O)COC(=O)CSCc1cccc(Cl)c1)c1c(N)n(Cc2ccccc2)c(=O)[nH]c1=O	1.16 µM [rising, full curve]	
Cc1[nH][nH]c(=O)c1C(c1ccc(O)c([N+](=O)[O-])c1)c1c(C)[nH][nH]c1=O	9.2 µM [falling, partial curve]	23.1 µM [rising, partial curve, poor fit]
CCc1ccc(-c2cc(C(=O)N/N=C/c3c[nH]c4ccccc34)[nH]n2)cc1	22.4 µM [falling, single point]	
COc1ccc(C2C(C#N)=C(C)NC3=C2C(=O)CC(C)(C)C3)c(OC)c1 (configuration not stated)	5.17 µM [rising, full curve, poor fit]	
CCOC(=O)c1cc(-c2ccccc2C)n(Cc2cc(C)no2)n1	8.2 µM [falling, partial curve, poor fit]	
CCCCOc1ccc(CSc2ncn[nH]2)cc1	11.2 µM [falling, partial curve]	
N/C(=N\OC(=O)c1ccco1)c1ccccc1	2.91 µM [rising, partial curve]	
C/C(=N\N=c1/scc(C)n1Cc1ccco1)c1cccc([N+](=O)[O-])c1	4.61 µM [rising, partial curve]	
Cc1ccc(OCc2nc(-c3ccccc3)no2)cc1	35.5 µM [falling, single point]	
CCOc1cc(C(=O)OCc2ccc(OC)cc2)ccc1OCC(=O)N1CCOCC1	6.51 µM [falling, single point]	7.31 µM [rising, partial curve, poor fit]
Fc1ccccc1CN1CCCN(C(=S)Nc2cccc(Cl)c2)C1	11.2 µM [falling, partial curve]	
CN(C)C(=O)c1ccc(NC(=O)COC(=O)/C=C/c2cccs2)cc1	1.3 µM [falling, partial curve, poor fit]	
Cc1cc(C)cc(NS(=O)(=O)c2ccc(NC(=S)Nc3ccccc3)cc2)c1	2.31 µM [falling, partial curve, poor fit]	
O=C(/C=C/c1cccnc1)c1ccc(O)cc1	17.8 µM [falling, partial curve, poor fit]	
CCOC(=O)c1cc(-c2ccccc2)n(CCC(=O)Nc2ccccc2CC)c1C	2.24 µM [rising, partial curve, poor fit]	
N#Cc1ccc(C(=O)NC2CCCCCCC2)cc1	12.6 µM [falling, partial curve, poor fit]	
CCC(=O)N1CCCc2cc(S(=O)(=O)NCc3cccs3)ccc21	1.64 µM [rising, full curve, poor fit]	
N/C(=N\OC(=O)CCCN1C(=O)c2ccccc2C1=O)c1ccccn1	1.26 µM [rising, partial curve, poor fit]	
CC(C)CNC(=O)CC(=O)N/N=C/c1ccc(Br)cc1	2.51 µM [falling, full curve, poor fit]	
O=C(Nc1ccc(Cl)cn1)c1cccc(S(=O)(=O)N2CCCC2)c1	11.2 µM [falling, partial curve, poor fit]	

Structure (SMILES)	AC50 [1]	AC50 [2]
CCCc1nc2cc(CC(=O)OC)ccc2o1	20 µM [rising, partial curve, poor fit]	
COC(=O)c1nn(-c2cccc(C(F)(F)F)c2)ccc1=O	35.5 µM [rising, single point]	
COc1cc(CO)ccc1OCc1ccc(Cl)nc1	11.2 µM [falling, single point]	
Cc1ccc(C23CC4CC(CC(CN)(C4)C2)C3)cc1	17.8 µM [falling, single point]	
Cc1cc(C)c(N=Cc2c(O)n(-c3nccs3)c(=O)c3ccccc23)c(C)c1		20.6 µM [rising, partial curve, poor fit]
O=C(NC1CCN(C(=S)Nc2ccc(Cl)cc2)CC1)c1ccco1	22.4 µM [rising, partial curve, poor fit]	
O=[N+]([O-])c1ccc(-c2nc(C(Cl)Cl)c3ccccc3n2)cc1	0.708 µM [rising, full curve, poor fit]	
O=C(CN1C(=O)NC2(CCCC2)C1=O)NNC(=O)c1ccccc1F	18.4 µM [rising, partial curve, poor fit]	
CN(CC(=O)Nc1ccc(F)cc1)C(=O)c1cccc(S(=O)(=O)N2CCN(c3ccccc3)CC2)c1	15.8 µM [falling, single point]	
CCOC(=O)c1c(-c2ccc(C)o2)csc1NC(=S)NC(=O)N(C)C	35.5 µM [rising, single point]	
NC(=O)c1ccc(NC(=O)CSc2nc3ccccc3c(=O)n2CCCN2CCOCC2)cc1	20.6 µM [rising, partial curve, poor fit]	
Cc1ccc(C(=O)Nc2cccc(C(F)(F)F)c2)cc1NC(=O)c1ccno1	0.224 µM [falling, full curve, poor fit]	
CCC(=O)Oc1ccc(C(=O)Nc2ccc3c(c2)OCO3)cc1	5.01 µM [falling, partial curve]	
COC(=O)c1ccc(Nc2ncnc3sccc23)cc1	2.82 µM [rising, partial curve, poor fit]	
O=C(Nc1sc2c(c1C(=O)O)CCC2)c1ccco1	5.8 µM [falling, partial curve]	
Cc1noc(C)c1COc1ccccc1C(=O)NCCOc1ccccc1	23.1 µM [rising, single point]	
CCOC(=O)C(C)(C)N(Cc1ccc(Cl)cc1)S(=O)(=O)c1ccc(Cl)c([N+](=O)[O-])c1	23.1 µM [falling, partial curve, poor fit]	
N#Cc1cn(-c2cccc(C(F)(F)F)c2)c(=O)[nH]c1=O	11.2 µM [rising, partial curve]	
CCc1ccc(N2C(=O)CN(CC(=O)OC)C2=S)cc1	0.316 µM [rising, full curve, poor fit]	
CCc1cccc(NC(=O)Cn2c3[n+](c4ccc(C(F)(F)F)cc42)CCCCC3)c1	2.91 µM [rising, single point]	

For convenience, some entries already given.
Structure (SMILES)	AC50 [1]	AC50 [2]
CCOC(=O)C(C)(C)N(Cc1ccc(Cl)cc1)S(=O)(=O)c1ccc(Cl)c([N+](=O)[O-])c1	23.1 µM [falling, partial curve, poor fit]	
N#Cc1cn(-c2cccc(C(F)(F)F)c2)c(=O)[nH]c1=O	11.2 µM [rising, partial curve]	
CCc1ccc(N2C(=O)CN(CC(=O)OC)C2=S)cc1	0.316 µM [rising, full curve, poor fit]	
